Results taken from PubChem BioAssay AID504467 (National Center for Advancing Translational Sciences (NCATS), 2011).
Hit rate of the full screen: of about 330,000 compounds, about 7,700 (2.3%) were called active. The inconclusive results got no clear call from the source; some entries with a clear call stand among them for comparison. Calls come from the whole dose curve; as a rule, active = well fitted inhibition curve with a large enough effect; inconclusive = small, poorly fitted or top-dose-only effect, or effect the other way; inactive = flat fitted curve, though single readings scatter. Where the call is inconclusive, the potency comes from a doubtful curve fit.

Test: qHTS screen for small molecules that inhibit ELG1-dependent DNA repair in human embryonic kidney (HEK293T) cells expressing luciferase-tagged ELG1; note: nearly all actives have a fitted effect of over 55% in size
Settings: HEK293T ELG1-luciferase reporter, luminescence, 16 h, DNA damage induced by 5-fluorouridine; series mostly up to 46.1 µM
Method in brief: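 Overnight (16 hr) co-exposure of 2,000 cells/well to 5-fluorouridine and compound at 37 °C preceded detection. Luciferase was quantified via ONE-Glo luminescence; loss of signal denotes inhibition.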
Potency is the fitted concentration of half-maximal effect.

SMILES | Potency
CC(=O)NCCOc1cccc2ccccc12 | inconclusive: 25.9 µM [activator, single point]
CC(C)CC(=O)OC(C)(C)[C@@H]1Cc2c(ccc3ccc(=O)oc23)O1 | inconclusive: 13 µM [inhibitor, single point]
COCCOc1ccc(C(F)(F)F)cc1NC(=O)COC(=O)c1cc([N+](=O)[O-])ccc1N1CCOCC1 | inconclusive: 23.1 µM [inhibitor, partial curve, poor fit]
O=C(COc1ccc(C(=O)c2ccccc2)cc1)NCc1ccc(F)cc1 | inconclusive: 29.1 µM [inhibitor, partial curve, poor fit]
CCCN(CC(=O)Nc1ccccc1C)C(=O)CSc1ccccc1C | inactive
COc1ccc(CN(C)S(=O)(=O)c2nnc(NC(=O)c3cccc(F)c3)s2)cc1 | inconclusive: 10.3 µM [inhibitor, partial curve, poor fit]
COCCn1c(=O)[nH]c2cc(C(=O)Nc3cccc(C(C)=O)c3)ccc2c1=O | inactive
O=c1c(-c2ccco2)[n+]([O-])c2ccccc2n1OCc1ccccc1[N+](=O)[O-] | active: 23.1 µM
Nc1nc(Nc2ccccc2)nc(N2CCOCC2)c1[N+](=O)[O-] | inactive
CC(=O)N/C(=C\c1ccccc1)C(=O)OCc1cc(C)ccc1C | inactive
N#Cc1ccc(OCC(O)CN2CCN(c3ncc(C(F)(F)F)cc3Cl)CC2)cc1 (configuration not stated) | active: 5.8 µM
Cc1sc2c(c1C)c(=O)n(-c1ccccc1)c(=O)n2CC(=O)NCC1CCCO1 (configuration not stated) | inconclusive: 3.26 µM [activator, full curve, poor fit]
COc1ccc(C(=O)NCCc2c[nH]c3ccccc23)cc1OC | inactive
Cc1ccc(C)c2[nH]c(=O)c(C(c3nnnn3Cc3ccccc3)N3CCc4ccccc4C3)cc12 (configuration not stated) | inactive
COc1ccc(-c2oc3cccnc3c2C#CCO)cc1 | inconclusive: 1.46 µM [inhibitor, partial curve, poor fit]
CC(C(=O)O/N=C(\N)c1ccccn1)c1ccc([N+](=O)[O-])cc1 (configuration not stated) | inconclusive: 11.6 µM [activator, partial curve]
O=C(Nc1nc2ccccc2s1)c1ccc([N+](=O)[O-])o1 | inconclusive: 16.4 µM [activator, partial curve]
CCC1CN(C(=O)N2CCC(C(=O)NCCc3ccccc3)CC2)c2ccccc2O1 (configuration not stated) | inconclusive: 23.1 µM [inhibitor, partial curve, poor fit]
CCC/C(=C1/c2ccccc2C(=O)N1c1ccccc1)c1ccc(O[C@@H]2CCCCO2)cc1 | inactive
O=C(CSCc1ccc(F)cc1)Nc1nc2c(s1)CCCC2 | inactive
CC1Cn2c(nc3sc4c(c3c2=O)CC(C)(C)OC4)N1CCO (configuration not stated) | inactive
COc1cccc(-c2cc(C(=O)N3CCN(Cc4ccccc4)CC3)no2)c1 | inactive
Cc1cc(C)n(Cc2ccc(C(=O)N/N=C/c3ccc(-c4ccc([N+](=O)[O-])cc4)o3)o2)n1 | inconclusive: 23.1 µM [activator, single point]
COc1ccc2[nH]c(C(=O)O)c(CCC(=O)O)c2c1 | inconclusive: 3.26 µM [activator, partial curve, poor fit]

An excerpt of these results, tab-delimited:
SMILES	Potency
CC(=O)NCCOc1cccc2ccccc12	inconclusive: 25.9 µM [activator, single point]
CC(C)CC(=O)OC(C)(C)[C@@H]1Cc2c(ccc3ccc(=O)oc23)O1	inconclusive: 13 µM [inhibitor, single point]
CCCN(CC(=O)Nc1ccccc1C)C(=O)CSc1ccccc1C	inactive
COCCn1c(=O)[nH]c2cc(C(=O)Nc3cccc(C(C)=O)c3)ccc2c1=O	inactive
O=c1c(-c2ccco2)[n+]([O-])c2ccccc2n1OCc1ccccc1[N+](=O)[O-]	active: 23.1 µM
Nc1nc(Nc2ccccc2)nc(N2CCOCC2)c1[N+](=O)[O-]	inactive
CC(=O)N/C(=C\c1ccccc1)C(=O)OCc1cc(C)ccc1C	inactive
N#Cc1ccc(OCC(O)CN2CCN(c3ncc(C(F)(F)F)cc3Cl)CC2)cc1 (configuration not stated)	active: 5.8 µM
Cc1sc2c(c1C)c(=O)n(-c1ccccc1)c(=O)n2CC(=O)NCC1CCCO1 (configuration not stated)	inconclusive: 3.26 µM [activator, full curve, poor fit]
COc1ccc(C(=O)NCCc2c[nH]c3ccccc23)cc1OC	inactive
Cc1ccc(C)c2[nH]c(=O)c(C(c3nnnn3Cc3ccccc3)N3CCc4ccccc4C3)cc12 (configuration not stated)	inactive
CC(C(=O)O/N=C(\N)c1ccccn1)c1ccc([N+](=O)[O-])cc1 (configuration not stated)	inconclusive: 11.6 µM [activator, partial curve]
O=C(Nc1nc2ccccc2s1)c1ccc([N+](=O)[O-])o1	inconclusive: 16.4 µM [activator, partial curve]
CCC1CN(C(=O)N2CCC(C(=O)NCCc3ccccc3)CC2)c2ccccc2O1 (configuration not stated)	inconclusive: 23.1 µM [inhibitor, partial curve, poor fit]
CC1Cn2c(nc3sc4c(c3c2=O)CC(C)(C)OC4)N1CCO (configuration not stated)	inactive
COc1cccc(-c2cc(C(=O)N3CCN(Cc4ccccc4)CC3)no2)c1	inactive
COc1ccc2[nH]c(C(=O)O)c(CCC(=O)O)c2c1	inconclusive: 3.26 µM [activator, partial curve, poor fit]

(further entries)

SMILES | Potency
CCc1cc2c(=O)n(-c3ccccc3)c(=S)[nH]c2s1 | inactive
COc1ccc(C2(C(=O)Nc3ccc(C)c(C)c3)CCOCC2)cc1 | inconclusive: 29.1 µM [inhibitor, single point]
Cc1ccccc1C(=O)N/N=C1\SCC(=O)N1Cc1ccco1 | inactive
CC1CCN(C(=O)COC(=O)c2nn(C)c(=O)c3ccccc23)CC1 | inconclusive: 0.73 µM [inhibitor, single point]
CC(C)(C)NC(=O)[C@]1(C)CCC[C@@]2(C)C3CC[C@@]4(C)C[C@]3(CCC21)CC4=O (some centres not stated) | inactive
COc1ccc(/C=N/Nc2nc(N3CCCCC3)nc(N3CCCCC3)n2)cc1[N+](=O)[O-] | inconclusive: 18.4 µM [inhibitor, single point]
COc1cccc(-c2ccc(SCC(=O)c3ccccc3)nn2)c1 | inconclusive: 23.1 µM [activator, single point]
CCn1c(SCC(=O)Nc2cccc(OC)c2)nnc1-c1ccc(Cl)cc1 | inconclusive: 29.1 µM [inhibitor, single point]
Cc1ccc(/C=C2/SC(=S)N(CCC(=O)N3CCN(c4ccccc4)CC3)C2=O)cc1 | inactive
CCN(CC)CCN(C)C1CCC(c2ccccc2)CC1 (configuration not stated) | inactive
COC(=O)c1ccc2[nH]c(CO)c(-c3ccccc3)c2c1 | inconclusive: 23.1 µM [activator, single point]
Cc1nc(-c2ccc(S(=O)(=O)Nc3ccc(Br)cc3Cl)s2)cs1 | inactive
CC(C)N(CCCNC(=O)c1nn(C)c2c1CS(=O)(=O)c1ccccc1-2)Cc1ccccc1 | inactive
CC(C)C(C(=O)O)N1C(=O)/C(=C/C=C/c2ccco2)SC1=S (configuration not stated) | inactive
COc1cccc(-n2c(CCn3nc(C)c([N+](=O)[O-])c3C)n[nH]c2=S)c1 | inactive
COc1cccc(/C=N/NC(=O)C(=O)NCc2cccnc2)c1O | inactive
Cc1ccc(OC(=O)c2sc3ncn(C)c(=O)c3c2C)cc1 | inconclusive: 20.6 µM [activator, partial curve]
CC1CCN(CCCNC(=O)CCc2nnc3n(CCc4ccccc4)c(=O)c4ccccc4n23)CC1 | inconclusive: 18.3 µM [activator, single point]
O=C(CCC(=O)Nc1ccccc1)N/N=C/C=C/c1ccccc1 | inconclusive: 20.6 µM [activator, single point]
O=C(COC(=O)c1ccccc1Cl)Nc1cccnc1Cl | inactive
Cc1ccc(N2C(=O)c3ccc(C(=O)N4CCN(c5cccc(C)c5C)CC4)cc3C2=O)cc1 | inconclusive: 23.1 µM [inhibitor, single point]
CC(C)(C)NC(=O)N1CCN(c2nc(-c3ccccc3)ns2)CC1 | inconclusive: 6.51 µM [activator, partial curve, poor fit]
COc1ccccc1S(=O)(=O)Cc1ccc(C(=O)NCc2ccco2)o1 | inconclusive: 0.73 µM [inhibitor, full curve]
Cc1ccc2nc(-c3cccnc3)c(NC3CCCC3)n2c1 | inconclusive: 29.1 µM [inhibitor, single point]

SMILES | Potency
CCN(CC(=O)Nc1c(F)cccc1F)C(=O)CN1C(=O)C2CCCCC2C1=O (configuration not stated) | inconclusive: 0.651 µM [inhibitor, single point]
O=C(CNC(=O)c1ccc(-c2ccccc2)cc1)OCc1ccc(Br)cc1 | inconclusive: 14.6 µM [activator, partial curve]
COc1ccccc1NC(=S)c1ccccc1 | inconclusive: 18.4 µM [activator, single point]
COCCn1c(SC)nnc1-c1c[nH]c2ccccc12 | inactive
Cc1ccc(/C=N/NC(=O)NC2CCCCC2)o1 | inconclusive: 5.17 µM [activator, full curve]
CC(/C=N/Nc1nc(C)cc(=O)[nH]1)=C\c1ccccc1 | inconclusive: 14.6 µM [activator, partial curve, poor fit]
CCOC(=O)C1(CCc2ccccc2)CCN(Cc2cnc(N(C)C)s2)CC1 | inconclusive: 23.1 µM [inhibitor, single point]
N#Cc1cc(-c2ccccc2)nnc1Sc1ccccc1 | inconclusive: 14.6 µM [activator, partial curve]
COc1cc(C(=O)N2CCCc3ccccc32)cc(OC)c1OC | inconclusive: 25.9 µM [inhibitor, partial curve, poor fit]
CCCS(=O)(=O)N1CCN(c2cc3c(cc2[N+](=O)[O-])n(C)c(=O)n3C)CC1 | inconclusive: 16.4 µM [inhibitor, single point]
O=C(c1ncc[nH]1)c1cccs1 | inconclusive: 18.3 µM [activator, partial curve]
Cc1nc(=S)c2ccccc2[nH]1 | inconclusive: 23.1 µM [activator, single point]
C#CCOc1nc(Nc2cccc([N+](=O)[O-])c2)nc(OCC#C)n1 | active: 18.3 µM
CC1(C)CC(=O)C(N=Nc2ccc(F)cc2)=C(O)C1 | inconclusive: 20.6 µM [activator, single point]
CCOC(=O)CC(=O)CSc1nc(CC)c(C)cc1C#N | inconclusive: 29.1 µM [activator, single point]
O=C1/C(=C/c2ccco2)CCc2ccccc21 | inconclusive: 9.2 µM [activator, partial curve]
Cc1ccc(-n2c(SCC(N)=O)nc3c(c2=O)C2(CCCC2)Cc2ccccc2-3)cc1 | inactive
COc1ccc(C(C)=O)cc1CSc1ccc(S(=O)(=O)N2CCCCC2)cn1 | inactive
CC(=O)c1ccc(N2CCN(C(=O)C3CCC3)CC2)cc1 | inconclusive: 25.9 µM [activator, single point]
COc1ccccc1NC(=O)C1=C(C)Nc2nc(-c3cccs3)nn2C1c1cccnc1 (configuration not stated) | active: 18.4 µM
COc1ccc(S(=O)(=O)NNC(=O)Nc2ccc(F)cc2F)c(OC)c1 | inactive
CCOc1ccc(C(=O)NC(=S)Nc2cccnc2)cc1 | inconclusive: 6.51 µM [activator, partial curve]
CC1(C)CC(=O)C(C(N)=NC(=O)c2ccccc2)=C(O)C1 | inconclusive: 0.206 µM [activator, full curve, poor fit]
Cc1ccc(S(=O)(=O)N(C)c2cc(S(=O)(=O)N3CCC(C)CC3)c(C)cc2C)cc1 | inconclusive: 35.5 µM [inhibitor, single point]
